Reference: PMC3762332
Construct, isoform or probe ends are uncertain for at least one entry. For some assays here: Protein sequences can lack the tags named with them.

Amino acid sequences for entries named in this document (tags omitted). A change or cut given only in a name is not applied to a line headed by its entry.
UniProt O00716: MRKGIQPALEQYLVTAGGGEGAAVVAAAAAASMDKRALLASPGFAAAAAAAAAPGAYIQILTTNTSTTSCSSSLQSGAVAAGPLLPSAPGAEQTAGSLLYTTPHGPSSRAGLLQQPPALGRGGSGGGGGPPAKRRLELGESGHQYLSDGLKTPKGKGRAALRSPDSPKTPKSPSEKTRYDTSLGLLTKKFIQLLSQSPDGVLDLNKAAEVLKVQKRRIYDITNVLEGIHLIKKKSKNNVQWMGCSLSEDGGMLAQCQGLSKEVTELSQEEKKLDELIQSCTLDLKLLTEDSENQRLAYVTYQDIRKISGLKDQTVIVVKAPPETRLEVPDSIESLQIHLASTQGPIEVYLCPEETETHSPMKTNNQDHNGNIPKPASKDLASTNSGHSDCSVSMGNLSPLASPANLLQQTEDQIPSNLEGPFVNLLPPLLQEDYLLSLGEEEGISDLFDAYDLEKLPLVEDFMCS
UniProt O43474: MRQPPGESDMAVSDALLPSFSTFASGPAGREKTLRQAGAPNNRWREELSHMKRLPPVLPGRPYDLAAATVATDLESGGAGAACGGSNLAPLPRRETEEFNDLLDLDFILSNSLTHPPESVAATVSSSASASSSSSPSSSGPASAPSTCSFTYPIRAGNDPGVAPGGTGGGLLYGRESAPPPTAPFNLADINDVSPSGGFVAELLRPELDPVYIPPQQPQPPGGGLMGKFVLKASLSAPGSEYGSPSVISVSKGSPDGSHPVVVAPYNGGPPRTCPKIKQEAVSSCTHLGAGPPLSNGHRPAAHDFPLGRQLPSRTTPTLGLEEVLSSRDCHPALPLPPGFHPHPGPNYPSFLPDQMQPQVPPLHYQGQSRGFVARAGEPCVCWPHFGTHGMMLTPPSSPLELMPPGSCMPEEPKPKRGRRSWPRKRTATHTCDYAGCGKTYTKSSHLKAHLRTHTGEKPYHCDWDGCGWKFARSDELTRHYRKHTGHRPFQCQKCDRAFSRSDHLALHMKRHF
UniProt P43694: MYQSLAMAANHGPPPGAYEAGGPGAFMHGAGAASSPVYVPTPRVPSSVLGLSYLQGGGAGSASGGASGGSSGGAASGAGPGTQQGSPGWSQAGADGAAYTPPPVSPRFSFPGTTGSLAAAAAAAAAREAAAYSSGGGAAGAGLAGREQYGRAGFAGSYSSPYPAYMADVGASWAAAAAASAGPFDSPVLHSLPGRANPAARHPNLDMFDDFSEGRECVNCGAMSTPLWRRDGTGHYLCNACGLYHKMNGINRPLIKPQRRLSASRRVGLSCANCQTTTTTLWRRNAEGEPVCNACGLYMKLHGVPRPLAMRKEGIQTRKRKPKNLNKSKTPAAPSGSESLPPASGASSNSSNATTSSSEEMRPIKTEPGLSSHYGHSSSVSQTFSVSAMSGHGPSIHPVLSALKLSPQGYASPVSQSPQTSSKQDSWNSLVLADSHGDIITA
UniProt Q8NC26: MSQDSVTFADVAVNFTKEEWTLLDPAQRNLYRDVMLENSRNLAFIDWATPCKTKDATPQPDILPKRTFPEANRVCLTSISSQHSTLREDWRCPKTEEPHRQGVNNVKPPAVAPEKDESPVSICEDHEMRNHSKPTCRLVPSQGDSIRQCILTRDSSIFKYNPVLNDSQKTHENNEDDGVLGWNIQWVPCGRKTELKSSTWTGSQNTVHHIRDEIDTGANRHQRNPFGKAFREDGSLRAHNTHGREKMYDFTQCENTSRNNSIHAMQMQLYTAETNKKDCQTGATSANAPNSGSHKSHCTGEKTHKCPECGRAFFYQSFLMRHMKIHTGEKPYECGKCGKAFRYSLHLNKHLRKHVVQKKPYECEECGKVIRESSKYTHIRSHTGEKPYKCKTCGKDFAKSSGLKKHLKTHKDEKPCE
UniProt Q8IW36: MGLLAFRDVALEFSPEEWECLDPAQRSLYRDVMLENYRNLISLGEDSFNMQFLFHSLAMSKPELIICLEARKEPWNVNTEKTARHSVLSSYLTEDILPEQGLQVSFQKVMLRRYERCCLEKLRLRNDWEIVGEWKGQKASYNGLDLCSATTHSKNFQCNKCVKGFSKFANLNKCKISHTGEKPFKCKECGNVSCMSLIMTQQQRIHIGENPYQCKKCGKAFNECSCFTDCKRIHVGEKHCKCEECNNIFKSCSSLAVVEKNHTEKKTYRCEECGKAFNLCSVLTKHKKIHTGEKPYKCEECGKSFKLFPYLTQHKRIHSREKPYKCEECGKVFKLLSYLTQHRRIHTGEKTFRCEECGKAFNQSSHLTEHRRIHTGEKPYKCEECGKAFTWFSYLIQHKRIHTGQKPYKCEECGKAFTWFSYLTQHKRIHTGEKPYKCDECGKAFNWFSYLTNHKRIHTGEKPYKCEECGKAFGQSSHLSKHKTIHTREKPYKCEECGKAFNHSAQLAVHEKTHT
UniProt Q9BWM5: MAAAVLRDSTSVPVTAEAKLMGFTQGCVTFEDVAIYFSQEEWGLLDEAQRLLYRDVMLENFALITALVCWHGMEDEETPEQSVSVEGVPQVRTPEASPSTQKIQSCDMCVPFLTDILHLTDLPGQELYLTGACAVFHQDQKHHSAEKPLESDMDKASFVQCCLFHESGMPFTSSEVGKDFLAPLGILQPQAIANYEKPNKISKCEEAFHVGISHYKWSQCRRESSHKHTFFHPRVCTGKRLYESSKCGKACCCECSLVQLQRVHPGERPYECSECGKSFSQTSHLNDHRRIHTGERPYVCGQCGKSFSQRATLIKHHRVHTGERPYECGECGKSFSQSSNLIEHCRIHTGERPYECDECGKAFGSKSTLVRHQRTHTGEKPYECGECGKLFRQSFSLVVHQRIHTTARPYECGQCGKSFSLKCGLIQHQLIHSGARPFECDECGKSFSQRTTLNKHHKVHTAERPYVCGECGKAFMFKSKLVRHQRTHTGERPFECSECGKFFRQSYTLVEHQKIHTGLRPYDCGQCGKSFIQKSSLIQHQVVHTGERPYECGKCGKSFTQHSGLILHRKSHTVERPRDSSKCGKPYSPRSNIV
UniProt Q8TBJ5: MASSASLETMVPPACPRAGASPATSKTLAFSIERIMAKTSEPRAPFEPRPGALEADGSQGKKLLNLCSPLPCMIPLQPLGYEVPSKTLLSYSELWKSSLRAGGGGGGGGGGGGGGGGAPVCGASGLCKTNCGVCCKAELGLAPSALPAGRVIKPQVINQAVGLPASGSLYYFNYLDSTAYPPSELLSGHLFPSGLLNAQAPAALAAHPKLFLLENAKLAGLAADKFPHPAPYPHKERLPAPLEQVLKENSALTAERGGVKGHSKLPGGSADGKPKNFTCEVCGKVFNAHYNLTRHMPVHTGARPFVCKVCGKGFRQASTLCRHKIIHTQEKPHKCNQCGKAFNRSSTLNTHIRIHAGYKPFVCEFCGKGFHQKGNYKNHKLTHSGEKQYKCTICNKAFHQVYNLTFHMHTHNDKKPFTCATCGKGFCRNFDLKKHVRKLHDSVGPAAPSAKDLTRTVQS
UniProt P20719: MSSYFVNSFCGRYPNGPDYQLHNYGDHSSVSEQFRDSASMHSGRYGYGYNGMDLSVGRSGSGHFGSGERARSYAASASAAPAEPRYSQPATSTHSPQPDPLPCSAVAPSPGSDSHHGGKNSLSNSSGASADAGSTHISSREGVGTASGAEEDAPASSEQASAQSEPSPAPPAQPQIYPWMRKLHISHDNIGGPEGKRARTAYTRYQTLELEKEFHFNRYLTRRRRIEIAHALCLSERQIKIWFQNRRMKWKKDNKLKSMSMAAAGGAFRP
UniProt Q9Y2L8: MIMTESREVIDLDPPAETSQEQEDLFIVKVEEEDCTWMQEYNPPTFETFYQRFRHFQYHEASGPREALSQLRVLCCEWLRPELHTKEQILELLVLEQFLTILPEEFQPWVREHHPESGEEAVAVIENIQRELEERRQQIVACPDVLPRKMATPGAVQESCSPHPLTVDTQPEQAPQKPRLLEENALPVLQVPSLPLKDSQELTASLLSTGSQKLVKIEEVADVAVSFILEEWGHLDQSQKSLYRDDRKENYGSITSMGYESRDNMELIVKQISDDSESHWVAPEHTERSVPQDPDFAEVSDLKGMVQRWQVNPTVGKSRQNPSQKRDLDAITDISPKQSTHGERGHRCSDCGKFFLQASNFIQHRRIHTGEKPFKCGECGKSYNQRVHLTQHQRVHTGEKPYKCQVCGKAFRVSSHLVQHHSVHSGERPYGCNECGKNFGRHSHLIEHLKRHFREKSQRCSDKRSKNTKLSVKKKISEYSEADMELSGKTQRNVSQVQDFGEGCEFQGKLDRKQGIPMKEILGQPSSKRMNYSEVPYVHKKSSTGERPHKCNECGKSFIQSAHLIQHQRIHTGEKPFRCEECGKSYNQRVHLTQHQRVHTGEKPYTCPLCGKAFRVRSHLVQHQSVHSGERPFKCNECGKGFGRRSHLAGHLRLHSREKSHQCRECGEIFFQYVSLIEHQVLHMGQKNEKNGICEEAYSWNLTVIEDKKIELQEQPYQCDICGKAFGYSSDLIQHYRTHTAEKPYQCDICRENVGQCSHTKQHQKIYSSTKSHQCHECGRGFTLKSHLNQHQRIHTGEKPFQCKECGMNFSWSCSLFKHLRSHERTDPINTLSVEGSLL
UniProt Q15583: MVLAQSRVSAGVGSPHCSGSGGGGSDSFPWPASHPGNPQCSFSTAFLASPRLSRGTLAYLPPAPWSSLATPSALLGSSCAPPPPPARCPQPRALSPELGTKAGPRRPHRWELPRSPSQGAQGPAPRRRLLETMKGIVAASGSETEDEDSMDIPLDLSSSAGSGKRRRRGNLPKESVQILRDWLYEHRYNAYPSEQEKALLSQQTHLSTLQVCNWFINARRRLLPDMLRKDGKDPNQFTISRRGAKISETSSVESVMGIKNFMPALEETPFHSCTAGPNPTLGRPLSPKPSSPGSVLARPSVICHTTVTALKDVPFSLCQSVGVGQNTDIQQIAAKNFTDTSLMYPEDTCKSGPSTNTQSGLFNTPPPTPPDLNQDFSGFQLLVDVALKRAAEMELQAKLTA
UniProt P05549: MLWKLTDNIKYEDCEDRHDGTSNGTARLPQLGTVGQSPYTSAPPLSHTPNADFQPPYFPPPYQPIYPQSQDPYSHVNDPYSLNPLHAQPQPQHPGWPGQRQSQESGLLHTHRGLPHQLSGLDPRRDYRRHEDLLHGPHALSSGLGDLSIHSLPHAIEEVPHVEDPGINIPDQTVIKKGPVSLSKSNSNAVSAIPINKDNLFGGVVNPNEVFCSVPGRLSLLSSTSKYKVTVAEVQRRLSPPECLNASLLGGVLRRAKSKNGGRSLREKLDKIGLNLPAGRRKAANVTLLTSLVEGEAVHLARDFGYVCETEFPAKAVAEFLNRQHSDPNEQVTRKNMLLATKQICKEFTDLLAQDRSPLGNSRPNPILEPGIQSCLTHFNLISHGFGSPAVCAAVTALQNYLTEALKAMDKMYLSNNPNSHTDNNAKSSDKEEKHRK
UniProt P08651, whole entry: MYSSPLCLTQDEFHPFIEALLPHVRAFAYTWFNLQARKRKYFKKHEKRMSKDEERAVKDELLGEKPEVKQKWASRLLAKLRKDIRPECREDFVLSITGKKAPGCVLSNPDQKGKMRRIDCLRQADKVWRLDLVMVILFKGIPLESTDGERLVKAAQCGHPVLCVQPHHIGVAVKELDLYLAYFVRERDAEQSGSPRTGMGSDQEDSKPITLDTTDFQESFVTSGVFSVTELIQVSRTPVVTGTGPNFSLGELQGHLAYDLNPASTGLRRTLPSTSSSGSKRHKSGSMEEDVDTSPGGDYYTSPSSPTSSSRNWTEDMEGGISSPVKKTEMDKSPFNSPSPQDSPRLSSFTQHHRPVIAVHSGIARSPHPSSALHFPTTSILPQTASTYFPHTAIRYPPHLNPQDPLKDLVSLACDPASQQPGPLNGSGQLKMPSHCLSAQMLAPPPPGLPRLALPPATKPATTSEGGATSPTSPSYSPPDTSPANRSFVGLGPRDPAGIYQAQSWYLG

Columns and labels:
Experiment in all cases: protein microarray
Details in all cases: 10-fold cold unmethylated competitor; 5mC at CpG (SssI, both strands); recombinant protein; protein details: GST (N-terminal); label: Cy5
E2F3 (Homo sapiens) = E2F3 (Homo sapiens) (UniProt O00716)
SUB1 (Homo sapiens) = SUB1 (Homo sapiens) (UniProt P53999)
KLF4 (Homo sapiens) = KLF4 (Homo sapiens) (UniProt O43474)
GATA4 (Homo sapiens) = GATA4 (Homo sapiens) (UniProt P43694)
ZNF114 (Homo sapiens) = ZNF114 (Homo sapiens) (UniProt Q8NC26)
ZNF695 (Homo sapiens) = ZNF695 (Homo sapiens) (UniProt Q8IW36)
ZNF416 (Homo sapiens) = ZNF416 (Homo sapiens) (UniProt Q9BWM5)
CALR (Homo sapiens) = target: T1, CALR (Homo sapiens) (UniProt P27797)
T1 sequence (looked up, limits assumed): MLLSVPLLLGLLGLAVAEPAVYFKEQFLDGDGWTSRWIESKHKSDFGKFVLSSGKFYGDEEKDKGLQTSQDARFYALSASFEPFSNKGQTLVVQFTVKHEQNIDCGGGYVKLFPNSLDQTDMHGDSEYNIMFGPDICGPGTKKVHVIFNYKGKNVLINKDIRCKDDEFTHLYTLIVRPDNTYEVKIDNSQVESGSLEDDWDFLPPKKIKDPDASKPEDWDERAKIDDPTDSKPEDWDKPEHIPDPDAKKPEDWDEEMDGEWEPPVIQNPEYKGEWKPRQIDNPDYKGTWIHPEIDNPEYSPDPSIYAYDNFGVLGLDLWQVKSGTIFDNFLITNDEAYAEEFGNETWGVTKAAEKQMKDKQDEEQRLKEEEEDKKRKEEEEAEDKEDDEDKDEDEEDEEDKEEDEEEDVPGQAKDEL

FEZF2 (Homo sapiens) = FEZF2 (Homo sapiens) (UniProt Q8TBJ5)
HOXA5 (Homo sapiens) = HOXA5 (Homo sapiens) (UniProt P20719)
ZKSCAN5 (Homo sapiens) = ZKSCAN5 (Homo sapiens) (UniProt Q9Y2L8)
SCAPER (Homo sapiens) = target: T2, SCAPER (Homo sapiens) (UniProt Q9BY12)
T2 sequence (looked up, limits assumed): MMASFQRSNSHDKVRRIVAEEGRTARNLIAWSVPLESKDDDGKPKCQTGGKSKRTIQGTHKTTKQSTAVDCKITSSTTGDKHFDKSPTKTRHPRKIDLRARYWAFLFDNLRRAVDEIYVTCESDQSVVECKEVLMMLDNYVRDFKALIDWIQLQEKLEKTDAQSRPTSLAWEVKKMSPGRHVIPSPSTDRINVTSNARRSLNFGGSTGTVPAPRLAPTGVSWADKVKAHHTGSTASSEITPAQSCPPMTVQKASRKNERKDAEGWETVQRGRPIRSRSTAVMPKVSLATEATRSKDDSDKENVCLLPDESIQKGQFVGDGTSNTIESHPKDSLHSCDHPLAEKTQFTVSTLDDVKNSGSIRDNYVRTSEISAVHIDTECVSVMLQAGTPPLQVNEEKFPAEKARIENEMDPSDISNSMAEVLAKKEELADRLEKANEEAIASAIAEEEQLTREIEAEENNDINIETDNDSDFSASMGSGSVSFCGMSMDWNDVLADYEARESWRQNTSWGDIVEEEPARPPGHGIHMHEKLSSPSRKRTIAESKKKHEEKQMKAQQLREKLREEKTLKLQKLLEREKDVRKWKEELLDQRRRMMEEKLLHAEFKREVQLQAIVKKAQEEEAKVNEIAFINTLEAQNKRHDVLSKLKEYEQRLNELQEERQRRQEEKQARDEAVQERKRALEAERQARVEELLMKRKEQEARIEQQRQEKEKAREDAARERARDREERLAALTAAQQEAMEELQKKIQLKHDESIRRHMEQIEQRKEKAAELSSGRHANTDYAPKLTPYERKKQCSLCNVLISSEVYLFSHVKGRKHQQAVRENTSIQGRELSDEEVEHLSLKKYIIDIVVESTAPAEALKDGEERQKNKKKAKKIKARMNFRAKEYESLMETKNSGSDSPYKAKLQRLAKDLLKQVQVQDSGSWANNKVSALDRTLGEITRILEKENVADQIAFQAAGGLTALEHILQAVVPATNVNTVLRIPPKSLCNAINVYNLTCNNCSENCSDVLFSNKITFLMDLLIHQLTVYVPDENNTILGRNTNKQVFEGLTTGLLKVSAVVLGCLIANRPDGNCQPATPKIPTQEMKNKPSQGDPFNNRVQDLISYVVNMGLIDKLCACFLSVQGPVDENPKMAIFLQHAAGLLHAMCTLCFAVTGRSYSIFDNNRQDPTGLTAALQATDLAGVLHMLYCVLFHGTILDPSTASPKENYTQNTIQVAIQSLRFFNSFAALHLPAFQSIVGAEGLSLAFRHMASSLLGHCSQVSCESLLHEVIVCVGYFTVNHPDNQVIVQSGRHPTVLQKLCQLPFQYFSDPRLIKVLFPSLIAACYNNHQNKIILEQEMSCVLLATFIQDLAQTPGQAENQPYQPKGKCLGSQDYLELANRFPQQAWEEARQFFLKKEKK

TGIF1 (Homo sapiens) = TGIF1 (Homo sapiens) (UniProt Q15583)
ASH2L (Homo sapiens) = ASH2L (Homo sapiens) (UniProt Q9UBL3)
TFAP2A (Homo sapiens) = TFAP2A (Homo sapiens) (UniProt P05549)
NFIC (Homo sapiens) = NFIC (Homo sapiens) (UniProt P08651)

Measured: binding result

ACTACATTTCCCGCCCACTACATTTCCCGCCCTATAGTGAGTGCTATTA (double strand) [M197]
not listed: ASH2L (Homo sapiens) | TFAP2A (Homo sapiens) | NFIC (Homo sapiens)
binds: all other assays above

TGGATTGTCGCCAGAAATGGATTGTCGCCAGCCCTATAGTGAGTGCTATTA (double strand) [M209]
not listed: SUB1 (Homo sapiens) | KLF4 (Homo sapiens) | TGIF1 (Homo sapiens)
binds: all other assays above
